Experimental data from the supplement of paper PMC6078165.

System: HCC1143
Experiment: relative JC-1 red fluorescence (viability) vs pre-drug, coculture with fibroblast (fraction); higher = more viable cancer cells
Procedure: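 JC-1 labelled TNBC cells cocultured 1:1 (1,500 cells each) with CellTrace Violet stained primary or stromal fibroblasts in 384-well plates in FluoroBrite medium, treated with one of 42 anticancer drugs at 0.1, 1, 10 or 100 uM. JC-1 red fluorescence (mitochondrial integrity in cancer cells only) was read by plate reader every 8 h for 72 h. Values are normalised to each well's pre-drug value. The stock of one drug was tenfold lower, so its dose labels may be too high.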

CC/C(=C(\c1ccccc1)c1ccc(OCCN(C)C)cc1)c1ccccc1 [Tamoxifen]
relative JC-1 red fluorescence
Conditions	8 h	16 h	24 h	32 h	40 h	48 h	56 h	64 h	72 h
0.1 µM, coculture fibroblast: C12385	0.867	0.7777	0.7113	0.648	0.588	0.55	0.5035	0.474	0.457
0.1 µM, coculture fibroblast: H6013	0.838	0.762	0.748	0.752	0.683	0.683	0.645	0.627	0.593
0.1 µM, coculture fibroblast: H6019	0.7879	0.7064	0.6622	0.5998	0.563	0.538	0.488	0.442	0.4
0.1 µM, coculture fibroblast: H6076	0.7989	0.735	0.708	0.686	0.634	0.616	0.59	0.569	0.581
0.1 µM, coculture fibroblast: H6231	0.8136	0.791	0.672	0.612	0.5805	0.5556	0.5137	0.481	0.4603
0.1 µM, coculture fibroblast: HADF	0.73	0.627	0.602	0.597	0.494	0.469	0.434	0.404	0.388
0.1 µM, coculture fibroblast: HCFa	0.785	0.69	0.6561	0.6422	0.5537	0.5288	0.483	0.446	0.424
0.1 µM, coculture fibroblast: HCPF	0.827	0.82	0.739	0.6577	0.651	0.6102	0.581	0.5457	0.5286
0.1 µM, coculture fibroblast: HHSteC	0.825	0.73	0.703	0.677	0.604	0.576	0.532	0.503	0.454
0.1 µM, coculture fibroblast: HMF	0.794	0.828	0.721	0.637	0.64	0.603	0.564	0.535	0.513
0.1 µM, coculture fibroblast: HPFa	0.9076	0.8105	0.766	0.671	0.605	0.567	0.5	0.455	0.408
0.1 µM, coculture fibroblast: HUF	0.853	0.7422	0.699	0.629	0.582	0.559	0.51	0.482	0.455
0.1 µM, coculture fibroblast: Hs5	0.861	0.849	0.82	0.825	0.75	0.736	0.722	0.703	0.706
0.1 µM, coculture fibroblast: Hs27A	0.722	0.63	0.603	0.604	0.498	0.494	0.442	0.406	0.358
0.1 µM, coculture fibroblast: Hs343T	0.823	0.802	0.7437	0.689	0.6512	0.613	0.564	0.538	0.518
0.1 µM, coculture fibroblast: WS1	0.8279	0.7237	0.6587	0.578	0.51	0.469	0.4238	0.3889	0.3613
1 µM, coculture fibroblast: C12385	0.859	0.7609	0.7173	0.658	0.597	–	–	–	–
1 µM, coculture fibroblast: H6013	0.841	0.793	0.76	0.761	0.692	–	–	–	–
1 µM, coculture fibroblast: H6019	0.8144	0.768	0.736	0.676	0.643	–	–	–	–
1 µM, coculture fibroblast: H6076	0.813	0.817	0.815	0.816	0.759	–	–	–	–
1 µM, coculture fibroblast: H6231	0.831	0.8048	0.748	0.66	0.65	–	–	–	–
1 µM, coculture fibroblast: HADF	0.737	0.6624	0.636	0.642	0.534	–	–	–	–
1 µM, coculture fibroblast: HCFa	0.804	0.707	0.661	0.645	0.567	–	–	–	–
1 µM, coculture fibroblast: HCPF	0.8253	0.802	0.77	0.706	0.695	–	–	–	–
1 µM, coculture fibroblast: HHSteC	0.847	0.77	0.737	0.71	–	–	–	–	–
1 µM, coculture fibroblast: HMF	0.809	0.8674	0.817	0.731	–	–	–	–	–
1 µM, coculture fibroblast: HPFa	0.9126	0.839	0.803	0.712	–	–	–	–	–
1 µM, coculture fibroblast: HUF	0.885	0.8	0.755	0.688	–	–	–	–	–
1 µM, coculture fibroblast: Hs5	0.8666	0.8556	0.826	0.819	–	–	–	–	–
1 µM, coculture fibroblast: Hs27A	0.756	0.7	0.66	0.654	–	–	–	–	–
1 µM, coculture fibroblast: Hs343T	0.8482	0.86	0.835	0.804	–	–	–	–	–
1 µM, coculture fibroblast: WS1	0.864	0.795	0.791	0.731	–	–	–	–	–

Values are relative to the signal before dosing, not to a vehicle control; the signal also falls without drug.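 Fibroblast labels denote human fibroblasts, mainly primary ones from uterus (C12385, HUF), lung (H6013), bone (Hs27A), adrenal (HADF) and skin (WS1), plus mammary HMF and breast cancer-associated Hs343T. Cancer cells are basal-like or mesenchymal-like triple-negative breast cancer lines. A hit is a response shift exceeding 3x replicate standard deviation. The tissue of the other fibroblasts is not given here.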
